Measurements taken from patent publication US8470831B2, “Acrylamido derivatives useful as inhibitors of the mitochondrial permeability transition” (Cogenia SRL, priority 2008, dated 2013).
For some assays here: At least one compound was matched to its structure with a doubt left. Some entries share one result that the patent states for a list of compounds.

Key:
[1] = rat, administered 30 minutes prior to hypoglycaemic insult; cited from earlier work
MPTP = test: Calcium Retention Capacity (CRC) assay on isolated mouse liver mitochondria; format: biochemical; conditions: compound 1 μM, ratio CRCi/CRCo

Compound	ultra-structural brain damage [1]	CRC efficacy (MPTP)
C=CC[C@@H]1/C=C(\C)C[C@H](C)C[C@H](OC)[C@H]2O[C@@](O)(C(=O)C(=O)N3CCCC[C@H]3C(=O)O[C@H](/C(C)=C/[C@@H]3CC[C@@H](O)[C@H](OC)C3)[C@H](C)[C@@H](O)CC1=O)[C@H](C)C[C@@H]2OC [FK506]	not	–
COc1ccc(/C=C/C(=O)Nc2cccc(Br)c2)cc1O [Compound 59, (E)-N-(3-Bromo-phenyl)-3-(3-hydroxy-4-methoxy-phenyl)-acrylamide]	–	> 2
COc1ccc(/C=C/C(=O)Nc2ccc(Cl)c(Cl)c2)cc1O [Compound 6, (E)-N-(3,4-Dichloro-phenyl)-3-(3-hydroxy-4-methoxy-phenyl)-acrylamide]	–	> 2
COc1ccc(/C=C/C(=O)Nc2cccc3ccn(Cc4ccn(C)n4)c23)cc1O [Compound 173, (E)-3-(3-Hydroxy-4-methoxy-phenyl)-N-[1-(1-methyl-1H-1-pyrazol-3-ylmethyl)-1H-indol-7-yl]-acrylamide]	–	> 2
COc1ccc(/C=C/C(=O)Nc2ccccc2COc2cccc(OC3CCNCC3)c2)cc1O [Compound 148, (E)-3-(3-Hydroxy-4-methoxy-phenyl)-N-{2-[3-(piperidin-4-yloxy)-phenoxymethyl]-phenyl}-acrylamide]	–	> 2
COc1ccc(/C=C/C(=O)Nc2cccc(I)c2)cc1O [Compound 58, (E)-3-(3-Hydroxy-4-methoxy-phenyl)-N-(3-iodo-phenyl)-acrylamide]	–	> 2
O=C(/C=C/c1ccc(F)c(O)c1)Nc1cccc2ccn(Cc3ccccc3)c12 [Compound 52, (E)-N-(1-Benzyl-1H-indol-7-yl)-3-(4-fluoro-3-hydroxy-phenyl)-acrylamide]	–	> 2
COc1ccc(OCc2ccccc2NC(=O)/C=C/c2ccc(OC)c(O)c2)cc1 [Compound 41, (E)-3-(3-Hydroxy-4-methoxy-phenyl)-N-[2-(4-methoxy-phenoxymethyl)-phenyl]-acrylamide]	–	> 2
COc1ccc(/C=C/C(=O)Nc2ccccc2COC2CCC2)cc1O [Compound 42, (E)-N-(2-Cyclobutoxymethyl-phenyl)-3-(3-hydroxy-4-methoxy-phenyl)-acrylamide]	–	> 2
O=C(/C=C/c1ccc(Cl)c(O)c1)Nc1ccccc1COc1cccc(OC2CCNCC2)c1 [Compound 150, (E)-3-(4-Chloro-3-hydroxy-phenyl)-N-{2-[3-(piperidin-4-yloxy)-phenoxymethyl]-phenyl}-acrylamide]	–	> 2
COc1ccc(/C=C/C(=O)Nc2ccccc2COc2ccc(OC3CCNCC3)cc2)cc1O.Cl [Compound 149, (E)-3-(3-Hydroxy-4-methoxy-phenyl)-N-{2-[4-(piperidin-4-yloxy)-phenoxymethyl]-phenyl}-acrylamide hydrochloride]	–	> 2
COc1ccc(/C=C/C(=O)Nc2cccc(OCc3ccncc3)c2)cc1O [Compound 65, (E)-3-(3-Hydroxy-4-methoxy-phenyl)-N-[3-(pyridin-4-ylmethoxy)-phenyl]-acrylamide]	–	> 2
COc1ccc(/C=C/C(=O)Nc2ccccc2COc2ccnn2C)cc1O [Compound 170, (E)-3-(3-Hydroxy-4-methoxy-phenyl)-N-[2-(2-methyl-2H-pyrazol-3-yloxymethyl)-phenyl]-acrylamide]	–	> 2
COc1ccc(/C=C/C(=O)Nc2ccccc2COc2ccccc2C(F)(F)F)cc1O [Compound 147, (E)-3-(3-Hydroxy-4-methoxy-phenyl)-N-[2-(2-trifluoromethyl-phenoxymethyl)-phenyl]-acrylamide]	–	> 2
COc1ccc(/C=C/C(=O)Nc2ccccc2COc2ccc(-n3ccnc3)cc2)cc1O [Compound 45, (E)-3-(3-Hydroxy-4-methoxy-phenyl)-N-[2-(4-imidazol-1-yl-phenoxymethyl)-phenyl]-acrylamide]	–	> 2
COc1ccc(/C=C/C(=O)Nc2cccc(C(F)(F)F)c2)cc1O [Compound 64, (E)-3-(3-Hydroxy-4-methoxy-phenyl)-N-(3-trifluoromethyl-phenyl)-acrylamide]	–	> 2
COc1ccc(/C=C/C(=O)Nc2cccc3cnn(C)c23)cc1O [Compound 81, (E)-3-(3-Hydroxy-4-methoxy-phenyl)-N-(1-methyl-1H-indazol-7-yl)-acrylamide]	–	> 2
